PubChem BioAssay AID1671195 – Yale University | 2021
The whole screen tested about 22,000 reagents; below is a random part of them. About 1,510 of them (6.9%) count as active. 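Active includes knockdowns raising or lowering LDL uptake; positive z-scores mean more uptake, negative mean less.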

- Aim: 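Regulators of LDL receptor activity judged by labelled LDL uptake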 (primary screen)
- Cell system: human Huh7 hepatoma cells
- Reagent: siRNA pool against human genes, 18 nM
- Duration: about 2 to 2.5 days of knockdown, then 8 h LDL uptake
- Challenge: DiI-labelled LDL at 30 µg/ml for 8 h, in lipoprotein-deficient serum medium
- Measurement: 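Fluorescent LDL signal imaged in cells, scaled to the plate median, robust z-score for each replicate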
- Reading the numbers: robust z-score: higher = more LDL uptake after knockdown
- Rule for the call: 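a gene counts as active if at least two replicate z-scores exceed ±2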

gene symbol | robust z-score, replicate 1 | robust z-score, replicate 2 | robust z-score, replicate 3 | outcome
NSMCE3 | 2.31 | 1.53 | 0.256 | inactive
GBP2 | -0.651 | -0.849 | 0.0199 | inactive
PWWP2A | 0.374 | -1.4 | -0.59 | inactive
IL27RA | 1.3 | 0.494 | 0.757 | inactive
KIF15 | -1.06 | -0.907 | -0.672 | inactive
PCDHGA1 | -0.201 | 0.0399 | -0.0714 | inactive
SSX5 | -2.13 | -2.01 | -2.46 | active
IGFBP2 | -0.98 | -1.59 | -1.32 | inactive
KITLG | 0.108 | -0.149 | 0.182 | inactive
MAFF | -1.26 | -2.51 | -0.706 | inactive
ZNF474 | -1.01 | -1.47 | -0.627 | inactive
MMP27 | -1.43 | -1.83 | -1.57 | inactive
CPPED1 | -2.03 | 0.0583 | -0.502 | inactive
ZNF737 | -0.379 | -0.0547 | -0.429 | inactive
APOBEC3D | -0.615 | -0.652 | -0.255 | inactive
SMARCD3 | -0.31 | 0.136 | 0.39 | inactive
RHBDD3 | -1.36 | -2.28 | -1.99 | inactive
LOC440120 (retired record) | -0.0919 | -0.229 | -0.177 | inactive
OR4D9 | -0.53 | -0.37 | -0.54 | inactive
TMPRSS3 | -1.07 | -1.11 | -1.32 | inactive
SYNPO2L | -2.43 | -2.24 | -1.63 | active
SOAT1 | -0.0356 | 0.603 | 0.777 | inactive
SLC30A6 | 1.04 | 2.46 | 0.43 | inactive
SYT2 | 1.62 | 1.44 | 2.21 | inactive
GARIN1A | 0.106 | -0.0891 | -0.197 | inactive
CACUL1 | 1.22 | -0.45 | 0.735 | inactive
LAIR1 | 0.414 | 0.57 | -0.743 | inactive
GLIS1 | 1.87 | 2.19 | 1.43 | inactive

Next part, starting with the last 5 of the part before.
gene symbol | robust z-score, replicate 1 | robust z-score, replicate 2 | robust z-score, replicate 3 | outcome
SYT2 | 1.62 | 1.44 | 2.21 | inactive
GARIN1A | 0.106 | -0.0891 | -0.197 | inactive
CACUL1 | 1.22 | -0.45 | 0.735 | inactive
LAIR1 | 0.414 | 0.57 | -0.743 | inactive
GLIS1 | 1.87 | 2.19 | 1.43 | inactive
NGB | -0.289 | -0.196 | 0.00773 | inactive
CEP295 | 1.08 | 0.985 | 0.798 | inactive
AKAP1 | -1.17 | -1.14 | -0.118 | inactive
ARMC6 | -1.11 | -0.444 | -0.544 | inactive
PNPO | -0.676 | 0.468 | -0.614 | inactive
RPS6 | -1.43 | -1.1 | 0.199 | inactive
WBP1 | -0.465 | -0.681 | -0.0273 | inactive
RBM20 | -0.355 | -0.567 | -0.438 | inactive
BAIAP2L2 | 1.06 | 1.04 | 1.9 | inactive
RPL29 | 0.181 | -0.148 | 0.33 | inactive
LINC01446 | -0.0268 | -0.241 | -0.796 | inactive
GADD45B | -0.149 | -0.039 | 0.2 | inactive
CMTM6 | 0.0127 | 0.0692 | 0.719 | inactive
ADRA2C | -0.00603 | 0.891 | -0.256 | inactive
ASB4 | -0.448 | -0.248 | 0.173 | inactive
DNASE1 | 0.522 | 0.618 | -0.165 | inactive
ZNF155 | 2.29 | 2.57 | 1.83 | active
HOXA7 | -0.487 | -0.0996 | -0.246 | inactive
CREB3L3 | 4.07 | 3.01 | 2.54 | inactive
RICTOR | 0.245 | 0.334 | 0.367 | inactive
MAML3 | -0.894 | 0.0552 | -1 | inactive
ADD3 | -0.609 | -0.623 | -0.92 | inactive
TTLL13 | 0.591 | 0.0889 | 0.331 | inactive
LHX8 | -0.596 | -0.851 | -0.925 | inactive
TAGAP | -0.807 | -0.263 | -0.51 | inactive
LOC388790 (retired record) | 0.168 | -0.0686 | 0.257 | inactive
SLCO5A1 | -0.572 | -1.54 | -0.926 | inactive
LOC389319 (retired record) | -0.738 | -0.456 | -0.726 | inactive
BRD9 | -0.691 | -0.555 | -0.688 | inactive
CARNS1 | -0.839 | -0.306 | 1.53 | inactive
KLF6 | -2.19 | -1.89 | -1.91 | active
FXYD7 | -1.58 | -1.93 | -1.49 | inactive
ZCCHC9 | 0.733 | 0.512 | 0.789 | inactive
TMCC3 | -1.94 | -1.27 | -1.21 | inactive
TANC1 | 0.631 | 0.915 | 0.819 | inactive
MGAT3 | -2.63 | 1.35 | 1.11 | inactive
NET1 | -1.47 | -0.744 | 2.58 | inactive
LY6G6D | -1.35 | -0.796 | -0.761 | inactive
JKAMP | -0.0293 | -1.61 | -1 | inactive
SPG11 | 1.63 | 1.15 | 0.706 | inactive
